According to patent EP2848693A1, “Concatenation of halogenated alkenyl diphosphate derivatives” (LANXESS Deutschland GmbH, priority 2013, dated 2015):
For at least one compound, name, drawing or mass did not settle the structure.

Chains of the proteins cited; added tags and fusions are not shown. Lines headed by an entry give the natural chain unless they say otherwise; changes in a name come on top.
UniProt P9WFF7: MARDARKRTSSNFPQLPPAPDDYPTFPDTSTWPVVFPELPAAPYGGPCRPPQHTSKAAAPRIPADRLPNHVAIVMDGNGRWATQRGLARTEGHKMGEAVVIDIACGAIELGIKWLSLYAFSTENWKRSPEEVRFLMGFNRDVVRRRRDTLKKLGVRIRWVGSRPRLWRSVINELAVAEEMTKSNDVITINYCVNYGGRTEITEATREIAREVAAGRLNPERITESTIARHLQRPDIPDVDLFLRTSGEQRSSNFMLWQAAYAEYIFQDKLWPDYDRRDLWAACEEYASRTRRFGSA

Legend:
Type in all cases: biochemical
[1] = target: T1, E. coli Undecaprenyldiphosphatsynthase (EcUPPS) (Escherichia coli, UniProt P60472); assay: MTP phosphate detection assay (diphosphate release, BIOMOL Green), substrate kinetics; conditions: relative to natural substrate FPP (100 %)
T1 construct: made in house; host or cells: E. coli
T1 sequence (P60472 1-253): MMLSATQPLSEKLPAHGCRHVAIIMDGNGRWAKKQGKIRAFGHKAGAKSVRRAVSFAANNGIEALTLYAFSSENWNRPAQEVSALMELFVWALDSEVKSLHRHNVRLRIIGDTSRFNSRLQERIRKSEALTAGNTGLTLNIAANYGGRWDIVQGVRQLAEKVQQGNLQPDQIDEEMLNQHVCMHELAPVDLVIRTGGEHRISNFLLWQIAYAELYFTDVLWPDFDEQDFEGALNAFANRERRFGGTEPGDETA
Protocol: Cis-Prenyltransferasen entlassen während der Reaktion Diphosphat nach jedem Kondensationsschritt. Dies ist der Ansatzpunkt, der gewählt wurde, um unabhängig von der Art des Produktes den Grundumsatz zu detektieren. […] Die Dreifachbestimmungen der Enzymreaktionen wurden mit 100 µL BIOMOL Green™ Detektionsreagenz gestoppt und nach weiteren 20 min in einem Mikrotiterplattenspektrophotometer bei 620 nm gemessen. Zur Kontrolle erfolgte für jede Substratkonzentration eine Messung mit denaturiertem Enzym zu den unterschiedlichen Zeitpunkten um Selbsthydrolyse der Substrate zu berücksichtigen. Zur Quantifizierung wurde eine Pi-Standardkurve in Doppelbestimmung mitgeführt. Die Verdünnung des KPi-Standards erfolgte in Assaypuffer, wurde mit 100 µL BIOMOL Green™ Detektionsreagenz nach Ablauf der Enzymreaktion in den Test-Wells detektiert und zeitgleich nach weiteren 20 min bei 620 nm gemessen. Eine lineare Beziehung zwischen A620 nm und Pi-Konzentration ermöglichte eine Quantifizierung zwischen 80 µM-0 µM Pi.
Die Bestimmung der FPP-Kinetiken der EcUPPS sowie der ThkCPT erfolgte unter analogen Bedingungen der Bestimmung von IPP. […] Die Enzymreaktion wurde nach 60 s, 120 s, 180 s, 300 s, 600 s, 900 s oder 1200 s durch Zugabe von 100 µL BIOMOL Green™ Detektionsreagenz gestoppt und wie oben beschrieben gemessen.
Die Assaybedingungen wurden wie in Beispiel 3 beschriebenen gewählt. […]

MtUPPS = target: T2, MtUPPS (Mycobacterium tuberculosis, UniProt P9WFF7); assay: Prenyltransferase activity test, conversion of FPP with elongation substrate (MTP phosphate detection assay); conditions: 5 µM E,E-FPP, 200 µM elongation substrate, 50 µM enzyme, room temperature
T2 construct: poly-Histidin-Tag (His6) (N); made in house; host or cells: E. coli BL21 (DE3)
Protocol: (§1) Die Aktivität der Prenyltransferasen wurde hinsichtlich der Umsetzung von Farnesyldiphosphat (FPP) als Startersubstrat und Isopentenyldiphosphat (IPP), und Cl-BPP bzw. Br-BPP mit Hilfe des MTP-Phosphatdetektionsassays bestimmt.
(§2) Cl-BPP und jeweils 50 µM Enzym bei Raumtemperatur durchgeführt. […] Cl-BPP gezeigt werden. Als Negativkontrolle diente ein Ansatz ohne Enzym (nicht gezeigt).

EcUPPS [2] = target: T3, EcUPPS (Escherichia coli, UniProt P60472); assay: as above; conditions: 5 µM E,E-FPP, 200 µM elongation substrate, 50 µM enzyme, room temperature
T3 construct: made in house; host or cells: E. coli
Protocol: as §1, §2

EcUPPS [3] = target: T3, EcUPPS; assay: Product chain length by HPLC with fluorescent starter substrate 110; conditions: 10 µM EcUPPS, 110 as starter substrate, HPLC of hydrolysed products
Protocol: Zur Bestimmung der Produktkettenlängen wurden 500 µL Enzymassays in MS-Gläschen durchgeführt. […] Die Extraktion der Polyprenyldiphosphate erfolgte mit 500 µL 1-Butanol. Die Butanolphase wurde in ein neues Glas überführt und unter Stickstoffstrom von dem Lösungsmittel befreit. Die Hydrolyse der Diphosphate zum Polyprenol erfolgte durch Zugabe von 200 µL Hydrolysepuffer (20% Isopropanol, 4,4 Units/mL saure Phophatase aus Kartoffeln, 0,1 % Triton X-100, 50 mM Natriumacetat (pH 4,7)) und wurde über Nacht bei 37 °C inkubiert. Die Polyprenole wurden mit 500 µL nHexan extrahiert und zur weiteren DC- oder HPLC-Analyse vorbereitet. Für DC-Experimente und LC/ESI-MS-Analysen wurde die nHexan-Phase in ein neues Glas überführt, das Lösungsmittel abgedampft und die Produkte erneut in 100 µL nHexan resuspendiert um eine Aufkonzentrierung zu erreichen. Für HPLC-Analysen mit 110 ((2E,6E)-8-O-(N-methyl-2-aminobenzoyl)-3,7-dimethyl-2,6-octandien-1-diphosphat) als Startersubstrat wurde die nHexan-Phase 1:3 verdünnt in das HPLC-System mittels Autosampler injiziert.
Die HPLC-Analyse der Polyprenole erfolgte an einer Anlage von Merck HITACHI D-7000, wobei als stationäre Phase eine YMC-ODS AQ (150 x 4 mm, 5 µm; YMC Europe GmbH, Dinslaken) Säule verwendet wurde. Die Elution erfolgte mit 1 mL·min^-1 und die Detektion bei 210 nm mit einem UV-VIS Detektor: Merck HITACHI L-7420. […]

Structure (SMILES)	rel. kcat Km^-1 [1]	Aktivität (Umsetzung von FPP mit Elongationssubstrat) (MtUPPS)	Aktivität (Umsetzung von FPP mit Elongationssubstrat) (EcUPPS [2])	Kondensationsschritte / Elongationseinheiten (EcUPPS [3])
CC(C)=CCC/C(C)=C/COP(=O)(O)OP(=O)(O)O [GPP, Geranyldiphosphat]	2%	–	–	–
C=C(C)CCOP(=O)(O)OP(=O)(O)O [IPP, Isopentenyldiphosphat, reference compound]	–	keine Aktivität	höchste Aktivität	8-9
